Measurements reported in paper doi:10.1101/2025.07.01.662281.
Results are given in words; binding and its absence hold for the method and conditions named. Binding seen in cells or lysates may run through a third protein. A yes stands for co-enrichment or nearness to the bait. Other partners may have been found.

T1: full-length Tmem127-BirA (UniProt Q8BGP5)
T1 sequence: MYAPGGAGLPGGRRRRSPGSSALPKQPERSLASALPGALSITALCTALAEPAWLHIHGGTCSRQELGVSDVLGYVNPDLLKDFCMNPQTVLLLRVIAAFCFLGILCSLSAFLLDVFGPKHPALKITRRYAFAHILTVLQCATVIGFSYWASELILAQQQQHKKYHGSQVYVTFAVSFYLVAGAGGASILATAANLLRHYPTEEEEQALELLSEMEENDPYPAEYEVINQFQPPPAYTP


Target: T1, full-length Tmem127-BirA
Assay: proximity labelling

Row | Binder | binding
1 | Vps8 (protein, UniProt Q0P5W1 1-1427) METEPDQEHLDQNPCARTVEEELSKSFNLEASLSKFSCLDLDKELEFRSDLIDDKEFDIPQVDTPPTLESILNETDDEDESFVLEDPTLLNVDTIDSHSYDTSSVASSDSGDRANLKRKKKLPDSFSLHGSVMRHSLLKGISAQIVSAADKVDAGLPTAIAVSSLIAVGTSHGLALIFDQNQALRLCLGSTSVGGQYGAISALSINNDCSRLLCGFAKGQITMWDLASGKLLRSITDAHPPGTAILHIKFTDDPTLAICNDSGGSVFELTFKRVMGVRTCESRCLFSGSKGEVCCIEPLHSKPELKDHPITQFSLLAMASLTKILVIGLKPSLKVWMTFPYGRMDPSSVPLLAWHFVAVNNSVNPMLAFCRGDMVHFLLVKRDESGAIHVTKQKHLHLYYDLINFTWINSRTVVLLDSVEKLHVIDRQTQEELETMEISEVQLVYNSSHFKSLATGGNVSQALALVGEKACYQSISSYGGQIFYLGTKSVYVMMLRSWRERMDHLLKQDCLTEALALAWSFHEGKAKAVVGLSGDVSKRKAVVADRMVEILFHYADRALKKCPDQGKIQVMEQHFQDTVPVIVDYCLLLQRKDLLFGQMYDKLSENSVAKGVFLECLEPYILSDKLVGITPQVMKDLIVHFQDKKLLENVEALIVHMDITSLDIQQVVLMCWENRLYDAMVYVYNRGMNEFISPMEKLFKVIAPPLNAGKTLTDEQVVMGNKLLVYISCCLAGRAYPLGDIPEDLVPLVKNQVFEFLIRLHSVEASSEEEVYPYVRTLLHFDTREFLNVLALTFEDFKNDKQAVEYQQRIVDILLKVMVENSDFTPSQVGCLFTFLARQLAKPDNTLFVNRTLFDQVLEFLCSPDDDSRHSERQQVLLELLQAGGIVQFEESRLIRMAEKAEFYQICEFMYEREHQYDKIIDCYLHDPLREEEVFNYIHNILSIPGHSAEEKQSVWQKAMNHMEELVSLKPCKAAELVATHFSEQIEVVIGQLQNQLLLFKFLRSLLDPREGVHVNQELLQIPPHITEQFIELLCQFSPDQVIQTLQVLECYRLEETIQITQKYQLHEVTAYLLEKKGDAHGAFLLLLERLQSRLQEMTRQDENTKEDILLKGVEDTMVETIALCQRNSQNLNQQQREALWFPLLEAMMTPQKLSSSAAAPHPHCEALKSLTMQVLNSMAAFIALPSILQRILQDPIYGKGKLGEIQGLILGMLDTFNYEQTLLETTASLLNQDLHWSLCNLRASVSRGLNPKQDYCSICLQQYKRRQEMADEIIVFSCGHLYHSFCLQSKECTLEVEGQTRWACHKCSSSNKAGKLSENPSENKKGRITSSQVKMSPSYHQSKGDPPARKANSEPVLDPQQMQAFDQLCRLYRGSSRLALLTELSQNRGGDSCRPFAGPQSGPAFNSVFQKENFQLQLAPPPVAED | binds
2 | Vps45 (protein, UniProt P97390 1-570) MNVVFAVKQYISKMIEDSGPGMKVLLMDKETTGIVSMVYTQSEILQKEVYLFERIDSQNREIMKHLKAICFLRPTKENVEYLIQELRRPKYSIYFIYFSNVISKSDVKSLAEADEQEVVAEVQEFYGDYIAVNPHLFSLNILGCCQGRNWDPAQLSRTTQGLTALLLSLKKCPMIRYQLSSEAAKRLGECVKQVISKEYELFEFRRTEVPPLLLILDRCDDAITPLLNQWTYQAMVHELLGINNNRIDLSRVPGISKDLREVVLSAENDEFYANNMYLNFAEIGSNIKNLMEDFQKKRPKEQQKLESIADMKAFVENYPQFKKMSGTVSKHVTVVGELSRLVSERNLLEVSEVEQELACQNDHSSALQNVKRLLQNPKVTEFDAVRLVMLYALHYERHSSNSLPGLIVDLRSKGVAEKYRKLVSAVVEYGGKRVRGSDLFSPKDAVAITKQFLKGLKGVENVYTQHQPFLHETLDHLIKGRLKENLYPYLGPSTLRDRPQDIIVFIIGGATYEEALTVYNLNRTTPGVRIVLGGTTIHNTKSFLEEVLASGLHSRSRESSQATSRSANRR | binds
3 | Vps51 (protein, UniProt Q3UVL4 1-782) MAAAAAVGPGLGSGPGDSPEGPEADAPERRRKAHGMLKLYYGLSEGEVAGHPAGPDPLDPTDLNGAHFDPEVYLDKLRRECPLAQLMDSETDMVRQIRALDSDMQTLVYENYNKFISATDTIRKMKNDFRKMEDEMDRLATNMAVITNFSARISATLQDRHERITKLAGVHALLRKLQFLFELPSRLTKCVELGAYGQAVRYQGRARAVLQQYQHLPSFRAIQDDCQVITARLAQQLRQRFREGCSGAPEQAECVELLLALGEPAEELCEEFLAHARGRLEEELSSLEAELGPSPPAPDVLEFTDRGGNGFVGGLCQVAAAYQELFAAQGPAGAEKLAAFAQELGGRYFALVERRLAQEQGGSDNSLLVRALDRFHRRLRAPGALLAAAGLSESATEIVERVARERLSHHLQGLKAAFLSSLTDVRQALAAPRLAGKEGPSLAELLANVASSILSHIKTSLASVHLFTAKEVSFSNKPYFRGEFCSQGVREGLIVGFIRSMCQTAQSFCDSPGEKGGATPPALLLLLSRLCLDYETATISYILTLTDEQFLVQDQSPVTPVSTLCAEARETARRLLTHYVKVQGLVISQMLRKSVETRDWLSTLEPRNVRAVMKRVVEDTTAIDVQVGLLYEEGVRKAQSSDSSKRTFSVYSSSRQQGRYAPSYTPSAPMDTNLLSNIQKLFSERIDVFSPVEFNKVSVLTGIIKISLKTLLECVRLRTFGRFGLQQVQVDCHFLQLYLWRFVADEELVHLLLDEVVASAALRCPDPVPMEPSVVEVICERG | binds
4 | CD120b/Tnfrsf1b (receptor, UniProt P25119 23-474) VPAQVVLTPYKPEPGYECQISQEYYDRKAQMCCAKCPPGQYVKHFCNKTSDTVCADCEASMYTQVWNQFRTCLSCSSSCTTDQVEIRACTKQQNRVCACEAGRYCALKTHSGSCRQCMRLSKCGPGFGVASSRAPNGNVLCKACAPGTFSDTTSSTDVCRPHRICSILAIPGNASTDAVCAPESPTLSAIPRTLYVSQPEPTRSQPLDQEPGPSQTPSILTSLGSTPIIEQSTKGGISLPIGLIVGVTSLGLLMLGLVNCIILVQRKKKPSCLQRDAKVPHVPDEKSQDAVGLEQQHLLTTAPSSSSSSLESSASAGDRRAPPGGHPQARVMAEAQGFQEARASSRISDSSHGSHGTHVNVTCIVNVCSSSDHSSQCSSQASATVGDPDAKPSASPKDEQVPFSQEECPSQSPCETTETLQSHEKPLPLGVPDMGMKPSQAGWFDQIAVKVA | binds
5 | Fam234b (protein, UniProt Q8BYI8 1-624) MATVLSRALKLPGKKSPDLGEYDPLTQADSDESEDDLVLNLQQKNGGVKNGKSALGDLPEPDSDADVAGAAKPHLSEVTPEGFPSEPLGGLEQKATSPLVSYVRTSVFLLTLVISMVLVLLCAFLIPCPPRDLHSAWSRRLGSQGGGDLSPLELADVNRDGLRDVLLTFVTTRNGTEGGVGSQPTADLVCLSGMNGSTLWSSPLPEEAQDVTCLDLIPGSVAKTICLVTGTRKMLSAFNATSGKVLWTLNPNHLSNGTLAAPVVVLPDLDEDGVRDLVVLAIGELQPDLCFLLVSGRTGSPVGRPVKYNIVGVGNLIGPQVYITASGAVYILFGFGNIQAVALRDIFVQAQNRDSSPPSLQIEEPEWEKHRSVNLSELIDVYSDGVELLQLVKAPDSNSSSLLITTRQGLVLLRGQDLTPHWKLNLQGLRSQPTPGYFTDDQTLDFLLQTQDGDGMKKMTVVDGGSGSIVWSYSIPCHMKETPTTSAITSDQKSVFLFWAEALTAASLSSDDSSGAEPPGLYHLYLLHPAFPSILLDLSNTTGIVTASEVGINDIWKDAFYVTRTTGMSPEGHPTSLVVSKLSLRWALMEGQMVQLKETTPKIGRGELRRFLSRIKFVDSPYQI | binds
6 | Zdhhc18 (enzyme, UniProt Q5Y5T2 1-380) MKDCEYQQISPGAAPPPASPGARRPGPAAPPAPSPGPAPGAPRWSGSGSGSGSLGRRPRRKWEVFPGRNRFYCGGRLMLAGHGGVFALTLLLILSTTILFFVFDCPYLARTLTLAIPIIAAILFFFVMSCLLQTSFTDPGILPRATICEAAALEKQIDNTGSSTYRPPPRTREVMINGQTVKLKYCFTCKMFRPPRTSHCSVCDNCVERFDHHCPWVGNCVGRRNYRFFYAFILSLSFLTAFIFACVVTHLTLLSQGSNFLSALKKTPASVLELVICFFSIWSILGLSGFHTYLVASNLTTNEDIKGSWSSKRGGEASVNPYSHKSIITNCCAVLCGPLPPSLIDRRGFVQSDTALPSPIRSDDPACGAKPDASMVGGHP | binds
7 | Tmem87a (protein, UniProt Q8BXN9 22-555) FPLSFLGAGPAPVFAADRSKWHIPMPSGKGYFNFGKILFRNTTILLKFDGEPCDQSLNITWFLKSADCYNEIYNFKADEIESYLENLKGKKGLSGRYQTSSRLFQNCSELYKAQSFSGDFTHRLPLLGEKQEAKENATNVTFTGDKIAMHEPLQTWQDAPYIFIVHVGISSSKESPKENALSNLFTMTVEVKGPYEYLTLEDYPLMIFFMVMCIVYVLFGVLWLAWSACYWRDLLRIQFWIGAVIFLGMFEKAVFYAEFQNIRYKGESVQNALVLAELLSAVKRSLARTLVIIVSLGYGIVKPRLGVTLHKVVVAGALYLLFSGMEGVLRVTGAQTDLASLAFIPLAFLDTALCWWIFISLTQTMKLLKLRRNIVKLSLYRHFTNTLILAVAASIVFIIWTTMKFRIVTCQSDWRELWVDDAIWRLLFSMILFVIMILWRPSANNQRFAFSPLSEEDEEDEQKEPMLKESFEGMKMRSTKQEPNGTSKVNKAQEDDLKWVEENVPSSVTDVALPALLDSDEERMITHFERSKME | binds
8 | Slc33a1 (protein, UniProt Q99J27 1-550) MSPTISHKDSSRQRRSGMFSHALDMKSGPLPPGGWDDSRRDSVGGEGDREVLLGDAGPGDLPKAPRSYRSELSSILLLLFLYVLQGIPLGLAGSIPLILQSKNVSYTDQAFFSFVFWPFSLKLLWAPLVDAVYFKNFGRRKSWLVPTQYTLGIFMIYLSTQVDRLLGNIDGRTPDVVALTVTFFLFEFLAATQDIAVDGWALTMLSRENVGYASTCNSVGQTAGYFLGNVLFLALESADFCNKYLRFQPQPRGIVTLSDFLFFWGTVFLITTTLVALLKKENREASIVKEETQGITDTYKLLFSIIKMPAVLAFCLLILTSKIGFSAADAVTGLKLVEEGVPKEHLALLAVPMVPLQIILPLLISKYTAGPQPLNIFYKAMPYRLLLGLEYALLVWWTPKVEHQGGFPLYYYIIVLLSYALHQVTLYSMYVSIMAFNAKVSDPLIGGTYMTLLNTVSNLGGNWPSTVALWLVDPLTVKECVGASNQNCRTPDAIELCKKLGGSCVTALDGYYVESIICVLIGFGWWFFLGPKFKKLQDEGPSSWKCKRNN | binds
9 | CD8β (protein, UniProt P10300 22-213) LIQTPSSLLVQTNHTAKMSCEVKSISKLTSIYWLRERQDPKDKYFEFLASWSSSKGVLYGESVDKKRNIILESSDSRRPFLSIMNVKPEDSDFYFCATVGSPKMVFGTGTKLTVVDVLPTTAPTKKTTLKMKKKKQCPFPHPETQKGLTCSLTTLSLLVVCILLLLAFLGVAVYFYCVRRRARIHFMKQFHK | binds
